PubChem BioAssay AID652243 | Drosophila RNAi Screening Center – 2013

Assay: 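Fly genes required for human androgen receptor driven transcription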 (primary screen)
Cells: Drosophila S2R+ cells
Reagents: long dsRNA against Drosophila genes
Time to read-out: 72 h (48 h, then 24 h hormone)
Challenge: synthetic androgen R1881 at 10 nM for 24 h
Measured: 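Per-well raw luminescence of the androgen-driven firefly reporter and of the Renilla control, two replicates each, without normalisation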
Scale: firefly reporter light: higher = more light from androgen-responsive reporter; Renilla control light: higher = more constitutive control signal (cell number, transfection)
Rule for the call: 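Hit when the log firefly-to-Renilla ratio dropped or increased by a fixed fold versus the mean of GFP or LacZ controls across duplicate plates; lowering cut given as 1.5 and as 3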
Meaning of the calls: active = hit: reporter lowered or raised; inactive = no hit
In all, the deposit lists about 24,000 reagents; shown is an unselected part of those that have a named target and a result. Of all reagents, 246 (1%) are marked active. 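Plates not normalised; calls are printed but the firefly/Renilla ratio behind them is not deposited; fold cut for lowering reported inconsistently.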 Raw values vary from plate to plate and are shown uncorrected. Reagent sequences are not shown. The record does not give: the amount of reagent.

Or43b [DRSC07486]
- firefly reporter light, replicate 1: 1.96e5
- firefly reporter light, replicate 2: 3.16e5
- Renilla control light, replicate 1: 1.73e6
- Renilla control light, replicate 2: 1.95e6
- call: inactive

Or43b [DRSC29565]
- firefly reporter light, replicate 1: 3.82e5
- firefly reporter light, replicate 2: 6.00e5
- Renilla control light, replicate 1: 7.26e5
- Renilla control light, replicate 2: 7.26e5
- call: inactive

CG1622 [DRSC19745]
- firefly reporter light, replicate 1: 1.26e5
- firefly reporter light, replicate 2: 1.26e5
- Renilla control light, replicate 1: 7.59e5
- Renilla control light, replicate 2: 8.06e5
- call: inactive

CG1622 [DRSC28342]
- firefly reporter light, replicate 1: 2.45e5
- firefly reporter light, replicate 2: 6.12e5
- Renilla control light, replicate 1: 1.04e6
- Renilla control light, replicate 2: 1.68e6
- call: inactive

CG14712 [DRSC14935]
- firefly reporter light, replicate 1: 25679
- firefly reporter light, replicate 2: 33234
- Renilla control light, replicate 1: 4.00e5
- Renilla control light, replicate 2: 2.52e5
- call: inactive

CG7730 [DRSC10909]
- firefly reporter light, replicate 1: 52151
- firefly reporter light, replicate 2: 56620
- Renilla control light, replicate 1: 7.30e5
- Renilla control light, replicate 2: 6.33e5
- call: inactive

CG3638 [DRSC18533]
- firefly reporter light, replicate 1: 20773
- firefly reporter light, replicate 2: 17039
- Renilla control light, replicate 1: 1.23e6
- Renilla control light, replicate 2: 8.89e5
- call: inactive

CG3638 [DRSC25349]
- firefly reporter light, replicate 1: 8.79e5
- firefly reporter light, replicate 2: 1.05e6
- Renilla control light, replicate 1: 9.32e5
- Renilla control light, replicate 2: 1.06e6
- call: inactive

CG5327 [DRSC06930]
- firefly reporter light, replicate 1: 91518
- firefly reporter light, replicate 2: 1.96e5
- Renilla control light, replicate 1: 2.11e6
- Renilla control light, replicate 2: 2.18e6
- call: inactive

Prim1 [DRSC11137]
- firefly reporter light, replicate 1: 1.63e5
- firefly reporter light, replicate 2: 1.61e5
- Renilla control light, replicate 1: 2.12e6
- Renilla control light, replicate 2: 1.88e6
- call: inactive

CG2246 [DRSC15433]
- firefly reporter light, replicate 1: 1.38e5
- firefly reporter light, replicate 2: 1.12e5
- Renilla control light, replicate 1: 1.15e6
- Renilla control light, replicate 2: 7.76e5
- call: inactive

CG2246 [DRSC39271]
- call: inactive

CG2246 [DRSC39286]
- call: inactive

Stt3A [DRSC20514]
- firefly reporter light, replicate 1: 76005
- firefly reporter light, replicate 2: 76107
- Renilla control light, replicate 1: 4.77e5
- Renilla control light, replicate 2: 5.30e5
- call: inactive

Stt3A [DRSC24884]
- firefly reporter light, replicate 1: 4.19e5
- firefly reporter light, replicate 2: 6.29e5
- Renilla control light, replicate 1: 3.76e5
- Renilla control light, replicate 2: 4.05e5
- call: inactive

CG2961 [DRSC18246]
- firefly reporter light, replicate 1: 5.05e5
- firefly reporter light, replicate 2: 5.39e5
- Renilla control light, replicate 1: 2.97e6
- Renilla control light, replicate 2: 3.25e6
- call: inactive

CG2961 [DRSC28539]
- firefly reporter light, replicate 1: 1.01e6
- firefly reporter light, replicate 2: 1.10e6
- Renilla control light, replicate 1: 8.12e5
- Renilla control light, replicate 2: 1.21e6
- call: inactive

Set8 [DRSC15473]
- firefly reporter light, replicate 1: 1.11e5
- firefly reporter light, replicate 2: 75212
- Renilla control light, replicate 1: 8.40e5
- Renilla control light, replicate 2: 4.90e5
- call: inactive

Set8 [DRSC27118]
- firefly reporter light, replicate 1: 2.60e5
- firefly reporter light, replicate 2: 2.42e5
- Renilla control light, replicate 1: 5.25e5
- Renilla control light, replicate 2: 4.00e5
- call: inactive

mys [DRSC18799]
- firefly reporter light, replicate 1: 2.74e5
- firefly reporter light, replicate 2: 2.12e5
- Renilla control light, replicate 1: 3.09e6
- Renilla control light, replicate 2: 3.16e6
- call: inactive

mys [DRSC29061]
- firefly reporter light, replicate 1: 6.07e5
- firefly reporter light, replicate 2: 5.12e5
- Renilla control light, replicate 1: 1.26e6
- Renilla control light, replicate 2: 9.03e5
- call: inactive

CG10252 [DRSC14221]
- firefly reporter light, replicate 1: 1.00e5
- firefly reporter light, replicate 2: 64618
- Renilla control light, replicate 1: 4.66e5
- Renilla control light, replicate 2: 3.26e5
- call: inactive

CG5079 [DRSC23061]
- firefly reporter light, replicate 1: 5.36e5
- firefly reporter light, replicate 2: 6.82e5
- Renilla control light, replicate 1: 9.08e5
- Renilla control light, replicate 2: 1.27e6
- call: inactive

CG17327 [DRSC15225]
- firefly reporter light, replicate 1: 2.21e5
- firefly reporter light, replicate 2: 2.14e5
- Renilla control light, replicate 1: 2.56e6
- Renilla control light, replicate 2: 2.27e6
- call: inactive

exd [DRSC20330]
- firefly reporter light, replicate 1: 4.74e5
- firefly reporter light, replicate 2: 4.34e5
- Renilla control light, replicate 1: 4.15e6
- Renilla control light, replicate 2: 3.66e6
- call: inactive

exd [DRSC30099]
- firefly reporter light, replicate 1: 1.10e6
- firefly reporter light, replicate 2: 9.20e5
- Renilla control light, replicate 1: 8.66e5
- Renilla control light, replicate 2: 8.62e5
- call: inactive

Sb [DRSC16851]
- firefly reporter light, replicate 1: 2.15e5
- firefly reporter light, replicate 2: 1.53e5
- Renilla control light, replicate 1: 2.23e6
- Renilla control light, replicate 2: 1.79e6
- call: inactive

Sb [DRSC29250]
- firefly reporter light, replicate 1: 4.38e5
- firefly reporter light, replicate 2: 5.77e5
- Renilla control light, replicate 1: 1.57e6
- Renilla control light, replicate 2: 1.37e6
- call: inactive

Ordered by “firefly reporter light, replicate 1” (descending): some entries from above.
mys [DRSC18799]
- firefly reporter light, replicate 1: 2.74e5
- firefly reporter light, replicate 2: 2.12e5
- Renilla control light, replicate 1: 3.09e6
- Renilla control light, replicate 2: 3.16e6
- call: inactive

Set8 [DRSC27118]
- firefly reporter light, replicate 1: 2.60e5
- firefly reporter light, replicate 2: 2.42e5
- Renilla control light, replicate 1: 5.25e5
- Renilla control light, replicate 2: 4.00e5
- call: inactive
